Assay: Consumer sensory panel, overall liking of turkey breast roll and bologna
Details: 2% additive, scale of 1 to 9 (9=strongly like)

In the case of `CC(O)C(=O)[O-].[Na+]` (centres unmarked) [Sodium Lactate, sodium lactate, reference compound], the “Mean score for overall liking” value (bologna, 112 consumers) is reported as 6.2 and the “Mean score for overall liking” value (turkey breast roll, 132 consumers) is reported as 6.9.

Reference: patent US20080045592A1, “Method of inhibiting growth and proliferation of listeria monocytogenes using levulinate” (Utah State University, priority 2006, published 2008)
